Paper PMC10936178 (mBio, 2024)
These are yes or no findings as the source states them, for the method shown.

Molecular target: full-length Plasmodium vivax Sub1 (PvS1FL), recombinant, autocleaved at Asp202 (P. vivax) (UniProt E6Y8B9)
Experiment: AUC; sedimentation equilibrium, pH 8 (50 mM Tris pH 8, 150 mM NaCl, 10 mM CaCl2), 20°C, 2, 5 and 10 µM protein, 9,000, 13,000 and 16,000 rpm, single-species model; both purified

B1: full-length Plasmodium vivax Sub1 (PvS1FL), recombinant, autocleaved at Asp202 (enzyme)
chain 1: GDILPNEGKKEKDDVHKIISELRFLQKVETILESSNMSVSDVEADANAYNPDRDAPKEELQKLQDQQETPSKQPNNLRNSPQKRAEKKESPGKNKKSLRLIVSENHATSPSFFEESLLQEDVVSFIQSKGKLSNLKNLKSMIIDLNSDMTDEELAEYISLLERKGALIESDKLVGAD
chain 2: DVSLASVKDAVRRGESSVNWGKLRSTMLEVPSGESPPSHAASSGSPFDDDDDLLSEAALHREEAHLAGSKTTKGYKFNDEYRNLQWGLDLARLDETQDLINANRVSVTKICVIDSGIDYNHPDLRNNIDVNVKELHGRKGVDDDSNGVVDDVYGANFVNNSGDPMDDNYHGTHVSGIISAVGNNGIGIVGVDGHSKLVICKALDQHKLGRLGDMFKCIDYCISRQAHMINGSFSFDEYSNIFNASVEHLRSLGILFFVSASNCAHDKLSKPDIAKCDLAVNHRYPPILSKTHNNVIAVANLKRDLDESYSLSVNSFYSNIYCQLAAPGTNIYSTTPMNNYRKLNGTSMASPHVAAIASIVRSINPNLTYLQIVEILRNAIVKLPSLTERVSWGGYVDILRAVNLAIDSKAAPYIKSHSWFRWKQGSRR
notes: Prodomain of P. vivax Sub1 up to the primary maturation site Asp202; Catalytic domain of P. vivax Sub1, from the residue after the primary maturation site Asp202 to the C-terminus
binding: no binding (condition: at pH 8 (2, 5 and 10 µM))
